All values are in %. How 0% and 100% were set is not recorded. Most values in the screen are low, and negative values occur. Compounds were drawn at random from those tested, without regard to their results.

Protein sequences, listed by entry. Tags and fused reporters are not part of them.
UniProt E9BF75, entry or part of it: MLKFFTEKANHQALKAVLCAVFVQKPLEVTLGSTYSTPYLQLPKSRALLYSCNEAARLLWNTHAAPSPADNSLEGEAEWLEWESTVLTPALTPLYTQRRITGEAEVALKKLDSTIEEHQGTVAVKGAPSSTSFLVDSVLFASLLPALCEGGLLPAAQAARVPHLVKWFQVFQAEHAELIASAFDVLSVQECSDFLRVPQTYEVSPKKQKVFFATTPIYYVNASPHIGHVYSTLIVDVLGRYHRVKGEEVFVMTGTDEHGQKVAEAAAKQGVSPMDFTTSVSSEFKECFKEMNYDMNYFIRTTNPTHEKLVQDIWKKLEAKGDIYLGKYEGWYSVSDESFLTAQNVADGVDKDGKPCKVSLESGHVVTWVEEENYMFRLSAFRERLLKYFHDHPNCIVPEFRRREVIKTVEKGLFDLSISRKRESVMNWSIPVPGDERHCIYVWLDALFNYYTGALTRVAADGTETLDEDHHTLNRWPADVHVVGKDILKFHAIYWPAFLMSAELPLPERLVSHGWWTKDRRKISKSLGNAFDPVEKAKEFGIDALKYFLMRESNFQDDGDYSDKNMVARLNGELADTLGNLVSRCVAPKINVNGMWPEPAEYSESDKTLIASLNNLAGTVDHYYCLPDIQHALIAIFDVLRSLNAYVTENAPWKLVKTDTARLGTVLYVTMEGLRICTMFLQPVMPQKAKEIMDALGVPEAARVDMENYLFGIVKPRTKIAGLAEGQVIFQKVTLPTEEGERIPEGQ

A: 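Methionyl-tRNA synthetase (putative), Leishmania donovani (UniProt E9BF75). Primary screen of methionyl-tRNA synthetase; the read-out is not stated. The test concentration is not given. Values are per cent inhibition. Of about 68,000 compounds tested this way, about 24 (0.035%) reached 50% or more in at least one test.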
B: 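Assay on Mycobacterium tuberculosis, filed only as a heat shock assay from Cornell; the read-out is not stated. The concentration is filed as 10 mM, unlikely as a test dose, so the dose is not known. The record gives no direction; compounds that gave an IC50 in retests scored well above the rest, so higher reads as stronger inhibition. About 69,000 compounds were tested under these conditions; 1.4% (about 930) showed 50% or more at least once.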

CSCC(=O)N(Cc1ccccn1)Cc1ccccc1C gave A: 19.1%; B: -7.152%.
Cc1nnc2n1CCN(Cc1nc(-c3ccoc3)no1)C2 gave A: 6.234%; B: 3.097%.
Cc1n[nH]c(C2CN(C(=O)CCc3cscn3)CCO2)n1 (centres unmarked) gave A: 16.32%; B: 8.062%.
CN1CCN(C(=O)c2cnsn2)c2cc(F)ccc21 gave A: 16.53%; B: 57.04%.
Cn1cnnc1C1CCCN(C(=O)c2cc(Cl)c3c(c2)OCO3)C1 (centres unmarked) gave A: 13.99%; B: 8.863%.
CCCNc1ncc(CN2C[C@H]3CC[C@@H]2CN(C2CCOCC2)C3)cn1 gave A: 22.3%.
[H][C@@]12CS(=O)(=O)C[C@]1([H])N(C(=O)CN(C)CC)CCN2Cc1ccccc1 gave B: 24.92%.
CC(C)c1nccn1-c1cccc(C2CCCN2S(=O)(=O)N(C)C)n1 (centres unmarked) gave A: 8.042%; B: -6.088%.
CN(CC1(O)CCCN(c2ccccn2)C1)C(=O)CC1CCOCC1 (centres unmarked) gave A: 14.89%; B: -14.45%.
CC(=O)NCCCC(=O)NC1(c2ccc(Cl)c(Cl)c2)CC1 gave A: 2.174%; B: 15.91%.
COc1ccnc(N2CCc3ccc(OC(F)F)cc3C2)n1 gave A: 20.52%; B: 15.54%.
Cn1ncc2c1NC(=O)CC2c1ccccc1Cl (centres unmarked) gave A: 16.2%; B: -2.735%.
CCC1CCC(NCCN2CCOCC2)CC1 (centres unmarked) gave A: 3.548%; B: 5.28%.
O=C(NCCCc1nnc2ccccn12)c1ccccc1C1CCNC1 (centres unmarked) gave A: 10.45%; B: 0.1811%.
Cc1nn(CCC(=O)N2CCCC(OCc3cccnc3)C2)c(C)c1C (centres unmarked) gave A: 11.17%; B: -21%.
Cc1nc(C)n(C2CCCN(C(=O)CCc3cscn3)C2)n1 (centres unmarked) gave A: 2.452%; B: -17.68%.
COc1cccc(CN2CCN(C(=O)CN3CCOCC3)CC2)n1 gave A: 10.24%; B: -31.34%.
Cc1cc(C)nc(N2CC=C[C@@H]2C(=O)NCc2ccc3c(c2)OCO3)n1.Cl gave B: 15.24%.
CCOC(=O)CN1C(=O)CN(S(C)(=O)=O)CCC(OC)c2ccccc21 (centres unmarked) gave A: 13.42%; B: 42.06%.
COc1cc(OC)cc(C(=O)NCCCNc2ncccn2)c1 gave A: 17.01%; B: -14.77%.
Cn1nc(CN2CCCC2)c2c1CN(C(=O)c1cccnc1)CC2.O=C(O)C(F)(F)F.O=C(O)C(F)(F)F gave B: -12.27%.
COc1ccccc1CC(=O)N1CCC(NCc2ccncc2)CC1 gave A: 14.29%; B: -3.913%.
NS(=O)(=O)CCNC(=O)C1(c2ccccc2)CC1 gave A: 9.938%; B: -4.053%.
CCn1nc(CNC(=O)C2CCCN(C(=O)COC)C2)c2ccccc21 (centres unmarked) gave A: 8.6%; B: -7.977%.
CN(CCC#N)C(=O)CN1CCCN(Cc2noc(C3CC3)n2)CC1 gave A: 9.783%; B: 16.9%.
COCC(=O)N1CCCC1(C(=O)N(C)C)c1cnccn1 (centres unmarked) gave A: 13.95%; B: 11.98%.
CC(C)CC(=O)NCCn1nc(C2CCNC2)c2cccnc21.Cl (centres unmarked) gave B: -18.22%.
COc1cc2cc(C)c(SCCN3CCCCC3)nc2cc1OC gave A: 13.92%.
Cc1nc(C)c(C(=O)N2CCc3c(Cl)cccc32)o1 gave A: 13.94%; B: -1.455%.
CC(C)C(=O)NC1CCN(c2cccc(OC(F)(F)F)c2)C1=O (centres unmarked) gave A: -2.653%; B: 8.267%.
Cc1ccc(N(CCC#N)C(=O)CCc2cscn2)cc1C gave A: 13.13%; B: -24.64%.
CN1CCCC(N2CCN(c3nc4ccccn4c3C#N)CC2)C1 (centres unmarked) gave A: -2.439%; B: -26.76%.
NC(=O)C(NCc1ccc(Cl)s1)c1ccccc1 (centres unmarked) gave A: 7.796%; B: -13.4%.

The last 3 entries again:

structure	A	B
Cc1ccc(N(CCC#N)C(=O)CCc2cscn2)cc1C	13.13	-24.64
CN1CCCC(N2CCN(c3nc4ccccn4c3C#N)CC2)C1 (centres unmarked)	-2.439	-26.76
NC(=O)C(NCc1ccc(Cl)s1)c1ccccc1 (centres unmarked)	7.796	-13.4

The values are deposited in ChEMBL (CHEMBL3988442, “University of Dundee, Small-Polar-MMV Screening Library” (2021)).